Literature values in patent US20260123654A1, “METHOD FOR IMPROVING THE BIOAVAILABILITY OF FUNCTIONAL FOOD PRODUCTS” (priority 2022, published 2026).
At least one compound was matched to its structure with a doubt left.

Settings: cited from earlier work

For [Xe] [xenon], which toxicity is on record?
Its toxicity is “absolutely non-toxic”.
